Measurements reported in BigSolDB 2.1.

CC(C)c1c(C(=O)Nc2ccccc2)c(-c2ccccc2)c(-c2ccc(F)cc2)n1CC[C@@H](O)C[C@@H](O)CC(=O)[O-].CC(C)c1c(C(=O)Nc2ccccc2)c(-c2ccccc2)c(-c2ccc(F)cc2)n1CC[C@@H](O)C[C@@H](O)CC(=O)[O-].O.O.O.[Ca+2]
solubility (mole fraction)
Settings	in acetone	in ethyl acetate	in isobutanol	in isobutyl acetate	in n-butanol	in n-butyl acetate	in n-octanol	in n-propanol	in water
293.15 K	0.0106	0.00164	0.000134	0.000141	0.000129	0.000609	5.8e-05	0.000204	1.9e-06
298.15 K	0.0121	0.00224	0.000155	0.000185	0.000183	0.000702	5.8e-05	0.000264	2.1e-06
303.15 K	0.0134	0.0029	0.000238	0.00029	0.000264	0.000891	9.4e-05	0.000379	2.2e-06
308.15 K	0.0161	0.00359	0.00036	0.000426	0.000389	0.00116	0.000135	0.000533	2.3e-06
313.15 K	0.0192	0.00415	0.000521	0.00068	0.000574	0.00154	0.000197	0.000735	2.4e-06
318.15 K	0.0227	0.00461	0.000776	0.00103	0.000865	0.00206	0.000263	0.00103	2.8e-06
323.15 K	0.0259	0.00513	0.000976	0.00143	0.00121	0.00273	0.000423	0.0014	3.3e-06
328.15 K	0.0297	0.00571	0.00121	0.00196	0.00162	0.00362	0.000638	0.00177	3.9e-06
